This data set is described as follows: general procedure: Boc solid-phase peptide synthesis; BHA resin, amine titer 0.61 meq/g. As to conditions: whole synthesis, relative area percent, scale of the general procedure 5 g resin, HCl salt.

Gly^8, Ala^16, des-Leu^19-SCT: the “final HPLC purity” value is given as “greater than 95%”.

(Values after patent publication EP0324130A2 (RORER INTERNATIONAL (OVERSEAS) INC. (a Delaware corporation), priority 1987, dated 1989).)
